Source: ChEMBL document CHEMBL6109084, “Discovery of potent, highly selective, and orally bioavailable factor XIa inhibitors for anticoagulant therapy” (Eur J Med Chem, 2025)
In brackets after ≈: the same amount, converted by molar mass.

Experiment: physchem
Conditions: pH 7.4

CC[C@@H](C(=O)Nc1ccc(C(N)=O)c(F)c1)n1cc(OC)c(-c2cc(Cl)ccc2-n2cc(C(F)(F)F)nn2)cc1=O
solubility kinetic at 12 h: 94 µg/mL (≈ 159 µM)
